From PubChem BioAssay AID624291 (National Center for Advancing Translational Sciences (NCATS), 2012)
Out of some 350,000 compounds screened, about 220 (0.063%) were called active. The shares of active, inactive and inconclusive entries below differ from those in the screen. The call rests on the fitted dose curve; in most records, active means well fitted activation curve with a large enough effect; inconclusive means small, poorly fitted or top-dose-only effect; inactive means no such curve, though single readings can be large or run the other way. Potencies of inconclusive entries are doubtful fits and often do not repeat.

Test: qHTS for Activators of Integrin-Mediated Alleviation for Muscular Dystrophy; further: nearly all actives have a fitted effect of over 60% in size;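 on activation: 100% = response of the positive control SU9516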
Details: alpha7betagal myoblasts, beta-gal FDG fluorescence, 48 h; activation: at 38.3 µM (top of the series)
Procedure, shortened: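 Alpha7betagal+/- myoblasts (passage 13) were plated 16-24 hr, then exposed to compounds (1:260 dilution of DMSO stock) for 48 hours at 37C. After MPER lysis, β-galactosidase reporter activity was read as FDG fluorescence (ex 480/em 540) after 30 minutes.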
Potency means the concentration at half of the fitted maximal effect.

SMILES	Potency	activation
C[C@H](NC(=O)C1CCN(S(=O)(=O)c2ccccc2)CC1)C(=O)NCc1ccccc1	inconclusive: 5.01 µM [activator, single point]	
CC(C)CC(=O)Nc1nnc(CSCc2ccc(F)cc2)s1	inconclusive: 5.01 µM [activator, single point]	
N=C1/C(=C/c2cccs2)C(=O)N=C2SN=C(SCc3ccccc3)N12	inconclusive: 20 µM [activator, single point]	
Cn1c(-c2cccc([N+](=O)[O-])c2)cnc1NCc1cccc(F)c1	inconclusive: 3.16 µM [activator, single point]	
CCCn1c2ccccc2c2nnc(SCC(=O)OC)nc21	inconclusive: 1.12 µM [activator, full curve, poor fit]	
O=C(Nc1ccc2nc(-c3ccccc3)[nH]c2c1)c1ccco1	inactive	
Cc1ccccc1NC(=S)C1=C(O)c2sccc2N(C)S1(=O)=O	inactive	
Cc1ccc(NC(=O)C2CCCN2C(=O)OCc2ccccc2)cc1F (centres undefined)	inconclusive: 5.01 µM [activator, single point]	
Cc1cccc(C(CC(=O)NCCc2ccccc2)c2ccccc2)c1O (centres undefined)	inconclusive: 5.01 µM [activator, single point]	
CC(C)(C)C(=O)Nc1cc(S(=O)(=O)N2CCCCC2)ccc1N1CCCCC1	inactive	
CCCn1c(SCC(=O)Nc2cc(Cl)ccc2Cl)n[nH]c1=O	inconclusive: 2.82 µM [activator, single point]	
Cc1ccc(C(=O)CN2C(=O)c3ccccc3S2(=O)=O)cc1	inactive	
CCOC(=O)c1nnn(-c2nonc2N)c1-c1ccccc1Cl	inconclusive: 11.2 µM [activator, single point]	
CC1Cc2ccccc2N1C(=O)COC(=O)c1ccc(O)cc1 (centres undefined)	inconclusive: 28.2 µM [activator, single point]	
COC(=O)c1cnn(-c2cc(Oc3cccc(C)c3)ncn2)c1N	inactive	
CCCc1nnc(SCC(=O)NC2CCCC2)n1CCOC	inconclusive: 8.91 µM [activator, partial curve, poor fit]	
CCS(=O)(=O)C1=NSC2=NC(=O)/C(=C\c3cc(C)n(-c4cccc(OC)c4)c3C)C(=N)N21	inconclusive: 1.78 µM [activator, partial curve, poor fit]	
COc1cc2nc(NC(=O)c3ccc(Cl)cc3)[nH]c(=O)c2cc1OC	inconclusive: 15.8 µM [activator, single point]	
Cc1cc(/C=C(/C#N)C(=O)O)c(C)n1-c1cccc2ccccc12	inconclusive: 5.01 µM [activator, single point]	
CN(C)C(=O)c1cc([N+](=O)[O-])ccc1O		inconclusive: -17% [activator]
COc1cccc(-c2csc(N3CCN(CC(=O)NNC(=O)c4ccc(Cl)cc4)CC3)n2)c1	inconclusive: 3.98 µM [activator, full curve, poor fit]	
CC1=CC(C)(C)N=C(Nc2ccc(C)cc2)S1	inactive	

Two successive entries out of the list so far, for reference:
SMILES	Potency	activation
COc1cc2nc(NC(=O)c3ccc(Cl)cc3)[nH]c(=O)c2cc1OC	inconclusive: 15.8 µM [activator, single point]	
Cc1cc(/C=C(/C#N)C(=O)O)c(C)n1-c1cccc2ccccc12	inconclusive: 5.01 µM [activator, single point]	

Following part

SMILES	Potency	activation
CC(=O)Nc1ccc(S(=O)(=O)N2CCC(C(=O)NCCC(=O)NCc3ccncc3)CC2)cc1	inconclusive: 3.16 µM [activator, full curve, poor fit]	
COc1ccc(S(=O)(=O)Cc2ccc(C(=O)O)o2)cc1	inconclusive: 5.01 µM [activator, partial curve, poor fit]	
COc1ccc(OC)c(-c2nc(C)sc2CC(=O)O)c1	inconclusive: 5.01 µM [activator, single point]	
S=c1[nH]nc(-c2ccncc2)n1/N=C/c1cccc(Cl)c1	inconclusive: 12.6 µM [activator, single point]	
COC(=O)C(=Cc1ccccc1[N+](=O)[O-])C(=O)OC	inactive	
O=C(O)CONC(=O)c1cc(OCC(F)(F)F)ccc1OCC(F)(F)F	inconclusive: 17.8 µM [activator, single point]	
COc1ccc(NC(=O)CCSc2nnc(C)s2)cc1	inconclusive: 10 µM [activator, partial curve, poor fit]	
CCOc1ccc2nc(SCC(=O)NNC(=O)c3ccco3)c(C)cc2c1	inconclusive: 5.01 µM [activator, single point]	
COC(=O)[C@@]1(Cc2ccc(OC)cc2)[C@H]2c3cc(C(=O)N4CCCC4)n(CCn4cc([N+](=O)[O-])nc4C)c3C[C@H]2CN1C(=O)c1ccccc1	inactive	
O=C(NC1(C(F)(F)F)OCCO1)c1ccc(F)cc1	inconclusive: 28.2 µM [activator, single point]	
CC(=O)c1ccc(NC(=S)Nc2cccc(S(=O)(=O)Nc3c(C)n(C)n(-c4ccccc4)c3=O)c2)cc1	inconclusive: 3.55 µM [activator, full curve]	
O=C1NC(=O)C2(CCCc3ccccc32)N1 (centres undefined)	inactive	
Brc1cccc(-c2cnco2)c1	inconclusive: 25.1 µM [activator, partial curve, poor fit]	
O=[N+]([O-])c1ccc(Nc2ccc(Cl)cc2)nc1	inconclusive: 5.01 µM [activator, single point]	
C[C@@H]1CN(C(=O)c2nc3ccc(Cl)cn3c2CN2CCc3sccc3C2)C[C@H](C)O1	inconclusive: 10 µM [activator, single point]	
O=S(=O)(c1ccc2nc(N3CCN(c4ccccc4F)CC3)ccc2c1)N1CCCCC1	inactive	
Cc1nc2ccccc2c(=O)n1/N=C/c1ccccc1OC(F)F	inconclusive: 5.01 µM [activator, single point]	
O=C(NC(=S)N1CCCC1)c1ccc(Cl)cc1Cl	inconclusive: 0.501 µM [activator, partial curve, poor fit]	
Cn1cc(Br)c(C(=O)Nc2sc3c(c2C(N)=O)CCCC3)n1	inactive	
O=[N+]([O-])c1cc(C(F)(F)F)ccc1Sc1ccc2ccccc2n1	inactive	
CCCCCCn1nc(C(=O)OCC(=O)c2c(N)n(C)c(=O)n(C)c2=O)c2ccccc2c1=O	inactive	
CCN(CC)S(=O)(=O)c1cccc(C(=O)N/N=C/c2ccc([N+](=O)[O-])o2)c1	inactive	
